Assay: general procedure: solution-phase peptide synthesis; EDC/HOBt; DSC/DIEA
Conditions: for step yield: late stage modification step

## Glutaryl-Val-sulfoPEG4Lys-C52 Benzylic Amine
  step yield: 50%

## DBCO-glutaryl-Val-PEG24Lys-PABA-C52 Benzylic Amine
Conjugation step
  conjugation yield: 36%

## Glutaryl-Val-PEG24Lys-PABA-C52 Benzylic Amine
  step yield: 61%
